PubChem BioAssay AID328 (DTP/NCI, 2004)
The list is a part of this screen's results and no random one: it is rich in T/C values a quarter to a half above the control, in often repeated tests (any T/C) and in doses without a T/C. Further doses and runs are listed elsewhere. T/C: endpoint of the treated group in % of that of the vehicle group. Some doses have a count of surviving animals in place of a T/C: the source holds a T/C of zero for them, seemingly a mark for toxic or unscored doses. Some doses without a T/C left all or most animals alive at the check, yet need not have been tolerated: survival well below the control is almost never listed, so the zero probably covers shortened survival too. Survivors were counted at the toxicity check, usually on the fifth day, unless a day is given; later deaths do not show. Schedule codes are those of the source, taken here to give the interval after Q, in days (D) or hours (H), and the number of doses after X. Some entries were tested several times; the results are listed from low to high. For survival time, the PubChem record calls one and a half times the control and up active, and a quarter to a half above the control has no call in these data; cut-offs in other NCI protocols can differ.

System: BDF1 mice, P388 leukemia ip, median survival T/C
Test: NCI In Vivo Anticancer Drug Screen. Data for tumor model P388 Leukemia (intraperitoneal) in B6D2F1 (BDF1) mice
Conditions: T/C endpoint: median survival time, higher T/C = longer survival
Outline: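 In tumour-bearing mice, survival after compound treatment is set against the vehicle group and given as a quotient.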

[1] = dose: 75.0 mg/kg/injection, schedule: Q01DX009 (ip), vehicle: saline
[2] = dose: 100.0 mg/kg/injection, schedule: Q04DX003 (ip), vehicle: Klucel (hydroxypropylcellulose) (HPC)
[3] = dose: 200.0 mg/kg/injection, schedule: Q04DX003 (ip), vehicle: Klucel (hydroxypropylcellulose) (HPC)
[4] = dose: 400.0 mg/kg/injection, schedule: Q04DX003 (ip), vehicle: Klucel (hydroxypropylcellulose) (HPC)
[5] = dose: 200.0 mg/kg/injection, schedule: Q01DX009 (ip), vehicle: Klucel (hydroxypropylcellulose) (HPC)
[6] = dose: 300.0 mg/kg/injection, schedule: Q04DX003 (ip), vehicle: Klucel (hydroxypropylcellulose) (HPC)
[7] = dose: 16.0 mg/kg/injection, schedule: Q01DX010 (ip), vehicle: saline
[8] = dose: 50.0 mg/kg/injection, schedule: Q04DX003 (ip), vehicle: water

For `O=[N+]([O-])c1ccc(N/N=C/CCl)c([N+](=O)[O-])c1`, the T/C (dose: 11.0 mg/kg/injection, schedule: Q04DX003 (ip), vehicle: saline with Tween-80) was 127 % of control, the T/C (dose: 25.0 mg/kg/injection, schedule: Q04DX003 (ip), vehicle: saline with Tween-80) was 130 % of control and the T/C (dose: 37.5 mg/kg/injection, schedule: Q04DX003 (ip), vehicle: saline with Tween-80) was 140 % of control.
`CCCN=C(N)c1ccc(N=C(N)c2ccc(N=C(N)c3ccc(C(N)=NCCC)cc3)cc2)cc1` was tested, and the T/C (dose: 6.6 mg/kg/injection, schedule: Q01DX009 (ip), vehicle: saline) was 140 % of control.
In the case of `CN(C)c1ncnc2c1ncn2C1OC(CO)C(N)C1O` (stereo not given), the T/C (dose: 21.0 mg/kg/injection, schedule: Q01DX009 (ip), vehicle: saline) is reported as 147 % of control, the T/C [1] is reported as 130 % of control and the survivor count [1] is reported as 6 of 6.
With `CCOC(=O)N(C)c1ccccc1` the survivor count [2] was 6 of 6, the survivor count [3] was 5 of 6 and the survivor count [4] was 6 of 6.
In the case of `COC(=O)C12OCC34C(CC5C(C)=C(O)C(=O)CC5(C)C3C(O)C1O)OC(=O)C(OC(=O)CC(C)C(C)C)C24` (stereo not given), the survivor count (dose: 8.0 mg/kg/injection, schedule: Q01DX009 (ip), vehicle: saline + alcohol) is reported as 2 of 6, the T/C (dose: 13.7 micrograms/kg/injection, schedule: Q01DX009 (ip), vehicle: saline) is reported as 125 % of control and the T/C (dose: 55.0 micrograms/kg/injection, schedule: Q01DX009 (ip), vehicle: saline) is reported as 130 % of control. The T/C (dose: 110.0 micrograms/kg/injection, schedule: Q01DX009 (ip), vehicle: saline) was 130 % of control, the T/C (dose: 125.0 micrograms/kg/injection, schedule: Q01DX009 (ip), vehicle: saline + alcohol) was 126 and 136 % of control and the T/C (dose: 220.0 micrograms/kg/injection, schedule: Q01DX009 (ip), vehicle: saline) was 130 % of control. The T/C (dose: 250.0 micrograms/kg/injection, schedule: Q01DX009 (ip), vehicle: saline + alcohol) was 130 and 136 % of control, the T/C (dose: 500.0 micrograms/kg/injection, schedule: Q01DX009 (ip), vehicle: saline + alcohol) was 140 % of control and the T/C (dose: 1000.0 micrograms/kg/injection, schedule: Q01DX009 (ip), vehicle: saline + alcohol) was 130 % of control. The T/C (dose: 2000.0 micrograms/kg/injection, schedule: Q01DX009 (ip), vehicle: saline + alcohol) was 130 % of control and the T/C (dose: 4000.0 micrograms/kg/injection, schedule: Q01DX009 (ip), vehicle: saline + alcohol) was 126 % of control.
For `Cc1cc(=O)c2cccc(C)c2[nH]1`, the survivor count [4] was 4 of 6.
`O=C(Nc1cccc(Cl)c1)c1cc(N=Nc2ccc([N+](=O)[O-])cc2Cl)ccc1O` was tested, and the T/C (dose: 90.0 mg/kg/injection, schedule: Q04DX003 (ip), vehicle: Klucel (hydroxypropylcellulose) (HPC)) was 126 % of control, the T/C (dose: 100.0 mg/kg/injection, schedule: Q01DX009 (ip), vehicle: Klucel (hydroxypropylcellulose) (HPC)) was 125 % of control and the T/C [2] was 138 % of control. The survivor count [5] was 2 of 6, the T/C [3] was 126 % of control and the survivor count [6] was 2 of 6.
In the case of `O=CN1CCN(c2ccc([N+](=O)[O-])c3nonc23)CC1`, the survivor count (dose: 60.0 mg/kg/injection, schedule: Q01DX009 (ip), vehicle: saline with Tween-80) is reported as 4 of 7.
With `O=NN(CCCl)C(=O)Nc1c[nH]c(=O)[nH]c1=O` the T/C (dose: 0.19 mg/kg/injection, schedule: Q04DX003 (ip), vehicle: saline with Tween-80) was 130 % of control, the T/C (dose: 1.56 mg/kg/injection, schedule: Q04DX003 (ip), vehicle: saline with Tween-80) was 133 % of control and the survivor count (dose: 50.0 mg/kg/injection, schedule: Q01DX009 (ip), vehicle: saline with Tween-80) was 6 of 6. The survivor count (dose: 100.0 mg/kg/injection, schedule: Q04DX003 (ip), vehicle: saline with Tween-80) was 6 of 6, the survivor count (dose: 200.0 mg/kg/injection, schedule: Q04DX003 (ip), vehicle: saline with Tween-80) was 6 of 6 and the survivor count (dose: 400.0 mg/kg/injection, schedule: Q04DX003 (ip), vehicle: saline with Tween-80) was 5 of 6.
In the case of `Cc1cc(C)c(CCO)c(C)c1`, the survivor count (dose: 0.37 mg/kg/injection, schedule: Q01DX009 (ip), vehicle: DMSO) is reported as 6 of 6, the survivor count (dose: 0.75 mg/kg/injection, schedule: Q01DX009 (ip), vehicle: DMSO) is reported as 6 of 6 and the survivor count (dose: 1.5 mg/kg/injection, schedule: Q01DX009 (ip), vehicle: DMSO) is reported as 6 of 6. For the same compound, the survivor count (dose: 3.0 mg/kg/injection, schedule: Q01DX009 (ip), vehicle: DMSO) was 6 of 6, the survivor count (dose: 6.0 mg/kg/injection, schedule: Q01DX009 (ip), vehicle: DMSO) was 6 of 6 and the survivor count (dose: 100.0 mg/kg/injection, schedule: Q04DX003 (ip), vehicle: DMSO) was 6 of 6.
For `COC1=CC(=O)C=C(OC)C1=O`, the survivor count [7] was 3 of 6.
In the case of `CCC(C)(O)C(=O)OC1C(=O)OC2CC3C(C)CC(=O)C(O)C3(C)C3C4(O)OCC23C1C(C)C4O` (stereo not given), the T/C (dose: 2.0 mg/kg/injection, schedule: Q01DX009 (ip), vehicle: saline with Tween-80) is reported as 127 % of control, the T/C (dose: 4.0 mg/kg/injection, schedule: Q01DX009 (ip), vehicle: saline with Tween-80) is reported as 127 % of control and the T/C (dose: 32.0 mg/kg/injection, schedule: Q01DX009 (ip), vehicle: saline with Tween-80) is reported as 129 % of control.
For `COc1ccc(C(=O)c2ccccc2)cc1OC`, the survivor count [3] was 6 of 6.
For `CSc1ncnc2c1ncn2C1OC(CO)C(O)C1O` (stereo not given), the T/C [7] was 136 % of control.
With `O=C(NCCNCc1ccccc1)c1ccccc1` the survivor count [8] was 3 of 6, the survivor count (dose: 200.0 mg/kg/injection, schedule: Q01DX009 (ip), vehicle: water) was 0 of 6 and the survivor count (dose: 200.0 mg/kg/injection, schedule: Q04DX003 (ip), vehicle: water) was 0 of 6.
In the case of `Cc1nc(N(C)C)c2cnn(-c3ccccc3)c2n1`, the survivor count (dose: 150.0 mg/kg/injection, schedule: Q01DX009 (ip), vehicle: Klucel (hydroxypropylcellulose) (HPC)) is reported as 6 of 6 and the survivor count (dose: 225.0 mg/kg/injection, schedule: Q01DX009 (ip), vehicle: Klucel (hydroxypropylcellulose) (HPC)) is reported as 5 of 6.
For `Clc1c(Cl)c(CBr)c(Cl)c(CBr)c1Cl`, the survivor count (dose: 60.0 mg/kg/injection, schedule: Q01DX009 (ip), vehicle: Klucel (hydroxypropylcellulose) (HPC)) was 4 of 6, the survivor count (dose: 88.0 mg/kg/injection, schedule: Q01DX009 (ip), vehicle: Klucel (hydroxypropylcellulose) (HPC)) was 6 of 6 and the T/C (dose: 88.0 mg/kg/injection, schedule: Q04DX003 (ip), vehicle: saline sonified) was 133 % of control. The survivor count (dose: 132.0 mg/kg/injection, schedule: Q01DX009 (ip), vehicle: Klucel (hydroxypropylcellulose) (HPC)) was 6 of 6, the survivor count (dose: 132.0 mg/kg/injection, schedule: Q04DX003 (ip), vehicle: Klucel (hydroxypropylcellulose) (HPC)) was 5 of 6 and the survivor count [5] was 1 of 6. The T/C (dose: 200.0 mg/kg/injection, schedule: Q01DX009 (ip), vehicle: saline sonified) was 127 % of control, the T/C [3] was 125 % of control and the survivor count [3] was 2 of 6 and 6 of 6. For the same compound, the survivor count (dose: 300.0 mg/kg/injection, schedule: Q01DX009 (ip), vehicle: Klucel (hydroxypropylcellulose) (HPC)) was 0 of 6, the survivor count [6] was 2 of 6 and 4 of 6 and the T/C (dose: 300.0 mg/kg/injection, schedule: Q04DX003 (ip), vehicle: saline sonified) was 144 % of control.
With `O/C(=C/C(=S)S)c1cccs1` the survivor count (dose: 12.5 mg/kg/injection, schedule: Q04DX003 (ip), vehicle: water) was 4 of 6, the survivor count (dose: 25.0 mg/kg/injection, schedule: Q04DX003 (ip), vehicle: water) was 1 of 6 and the survivor count [8] was 0 of 6.
With `NC(=S)N/N=C/c1cc(-c2cccc(N)c2)ccn1` the T/C (dose: 6.25 mg/kg/injection, schedule: Q01DX009 (ip), vehicle: saline with Tween-80) was 146 % of control and the survivor count (dose: 100.0 mg/kg/injection, schedule: Q01DX009 (ip), vehicle: saline with Tween-80) was 6 of 6.
In the case of `c1cc[c]([Pb]([c]2ccccc2)([c]2ccccc2)[n]2cccc2)cc1`, the T/C (dose: 85.0 mg/kg/injection, schedule: Q04DX003 (ip), vehicle: Klucel (hydroxypropylcellulose) (HPC)) is reported as 127 % of control.
